These results are taken from the supplement of paper PMC11546906.

Where a name gives a salt, the structure may show the parent alone. Some of the results follow. This data set is noisy: repeats of one test often differ as much as different tests do.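 A screen tested FDA-approved drugs combined with one-eighth-MIC colistin against a clinical mcr-1-positive, multidrug-resistant E. coli isolate, measuring OD600 at 24 h. Controls were untreated bacteria (growth) and broth alone (blank). An OD600 under 0.2 marked a combination as active.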

For the assay, the system named is Escherichia coli 42 (mcr-1-positive clinical isolate). Put plainly: OD600 after 24 h growth with compound plus colistin (absorbance units (OD600)); higher = more bacterial growth (less inhibition). The note with it: first compound 25 µM; colistin concentration 0.5 ug/mL; incubation time 24 h; 37 °C.
Consider `Nc1nc2c(ncn2COC(CO)CO)c(=O)[nH]1` [Ganciclovir] + CCC(C)CCCC(=O)N[C@@H](CCN)C(=O)N[C@H](C(=O)N[C@@H](CCN)C(=O)N[C@H]1CCNC(=O)[C@H]([C@@H](C)O)NC(=O)[C@H](CCN)NC(=O)[C@H](CCN)NC(=O)[C@H](CC(C)C)NC(=O)[C@@H](CC(C)C)NC(=O)[C@H](CCN)NC1=O)[C@@H](C)O [colistin], for which the OD600 was inactive: 0.791.

On to `CN(C)/N=N/c1[nH]cnc1C(N)=O` [Dacarbazine] + CCC(C)CCCC(=O)N[C@@H](CCN)C(=O)N[C@H](C(=O)N[C@@H](CCN)C(=O)N[C@H]1CCNC(=O)[C@H]([C@@H](C)O)NC(=O)[C@H](CCN)NC(=O)[C@H](CCN)NC(=O)[C@H](CC(C)C)NC(=O)[C@@H](CC(C)C)NC(=O)[C@H](CCN)NC1=O)[C@@H](C)O [colistin], for which the OD600 was inactive: 1.02.

Regarding `CN(C)CCn1nnnc1SCC1=C(C(=O)O)N2C(=O)[C@@H](NC(=O)Cc3csc(N)n3)[C@H]2SC1` [Cefotiam hydrochloride] + CCC(C)CCCC(=O)N[C@@H](CCN)C(=O)N[C@H](C(=O)N[C@@H](CCN)C(=O)N[C@H]1CCNC(=O)[C@H]([C@@H](C)O)NC(=O)[C@H](CCN)NC(=O)[C@H](CCN)NC(=O)[C@H](CC(C)C)NC(=O)[C@@H](CC(C)C)NC(=O)[C@H](CCN)NC1=O)[C@@H](C)O [colistin], the OD600 was inactive: 1.08.

As to `CC(C)(Sc1cc(C(C)(C)C)c(O)c(C(C)(C)C)c1)Sc1cc(C(C)(C)C)c(O)c(C(C)(C)C)c1` [Probucol] + CCC(C)CCCC(=O)N[C@@H](CCN)C(=O)N[C@H](C(=O)N[C@@H](CCN)C(=O)N[C@H]1CCNC(=O)[C@H]([C@@H](C)O)NC(=O)[C@H](CCN)NC(=O)[C@H](CCN)NC(=O)[C@H](CC(C)C)NC(=O)[C@@H](CC(C)C)NC(=O)[C@H](CCN)NC1=O)[C@@H](C)O [colistin], the OD600 is inactive: 1.13.

As for `Cc1ccc(S(=O)(=O)NC(=O)NN2CCCCCC2)cc1` [Tolazamide] + CCC(C)CCCC(=O)N[C@@H](CCN)C(=O)N[C@H](C(=O)N[C@@H](CCN)C(=O)N[C@H]1CCNC(=O)[C@H]([C@@H](C)O)NC(=O)[C@H](CCN)NC(=O)[C@H](CCN)NC(=O)[C@H](CC(C)C)NC(=O)[C@@H](CC(C)C)NC(=O)[C@H](CCN)NC1=O)[C@@H](C)O [colistin], the OD600 is inactive: 1.11.

As to `CO/N=C(\C(=O)N[C@@H]1C(=O)N2C(C(=O)O)=C(CSc3nc(=O)c(O)nn3C)CS[C@H]12)c1csc(N)n1` [Ceftriaxone sodium hydrate] + CCC(C)CCCC(=O)N[C@@H](CCN)C(=O)N[C@H](C(=O)N[C@@H](CCN)C(=O)N[C@H]1CCNC(=O)[C@H]([C@@H](C)O)NC(=O)[C@H](CCN)NC(=O)[C@H](CCN)NC(=O)[C@H](CC(C)C)NC(=O)[C@@H](CC(C)C)NC(=O)[C@H](CCN)NC1=O)[C@@H](C)O [colistin], the OD600 was active: 0.043.

Consider `CC(C)(C)NCC(O)c1ccc(O)c(CO)c1` (centres undefined) [Salbutamol] + CCC(C)CCCC(=O)N[C@@H](CCN)C(=O)N[C@H](C(=O)N[C@@H](CCN)C(=O)N[C@H]1CCNC(=O)[C@H]([C@@H](C)O)NC(=O)[C@H](CCN)NC(=O)[C@H](CCN)NC(=O)[C@H](CC(C)C)NC(=O)[C@@H](CC(C)C)NC(=O)[C@H](CCN)NC1=O)[C@@H](C)O [colistin], for which the OD600 was inactive: 1.14.

Consider `COc1cnc(NS(=O)(=O)c2ccc(N)cc2)nc1` [Sulfameter] + CCC(C)CCCC(=O)N[C@@H](CCN)C(=O)N[C@H](C(=O)N[C@@H](CCN)C(=O)N[C@H]1CCNC(=O)[C@H]([C@@H](C)O)NC(=O)[C@H](CCN)NC(=O)[C@H](CCN)NC(=O)[C@H](CC(C)C)NC(=O)[C@@H](CC(C)C)NC(=O)[C@H](CCN)NC1=O)[C@@H](C)O [colistin], for which the OD600 is inactive: 1.14.

Consider `O=C(O)C1(C(=O)O)CCC1.[NH2-].[NH2-].[Pt+2]` [Carboplatin] + CCC(C)CCCC(=O)N[C@@H](CCN)C(=O)N[C@H](C(=O)N[C@@H](CCN)C(=O)N[C@H]1CCNC(=O)[C@H]([C@@H](C)O)NC(=O)[C@H](CCN)NC(=O)[C@H](CCN)NC(=O)[C@H](CC(C)C)NC(=O)[C@@H](CC(C)C)NC(=O)[C@H](CCN)NC1=O)[C@@H](C)O [colistin], for which the OD600 was inactive: 1.1.

With `Cc1nc(-c2ccc(OCC(C)C)c(C#N)c2)sc1C(=O)O` [Febuxostat] + CCC(C)CCCC(=O)N[C@@H](CCN)C(=O)N[C@H](C(=O)N[C@@H](CCN)C(=O)N[C@H]1CCNC(=O)[C@H]([C@@H](C)O)NC(=O)[C@H](CCN)NC(=O)[C@H](CCN)NC(=O)[C@H](CC(C)C)NC(=O)[C@@H](CC(C)C)NC(=O)[C@H](CCN)NC1=O)[C@@H](C)O [colistin], the OD600 is inactive: 1.02.

With `CC(C)N1CCN(c2ccc(OCC3COC(Cn4cncn4)(c4ccc(Cl)cc4Cl)O3)cc2)CC1` (centres undefined) [Terconazole] + CCC(C)CCCC(=O)N[C@@H](CCN)C(=O)N[C@H](C(=O)N[C@@H](CCN)C(=O)N[C@H]1CCNC(=O)[C@H]([C@@H](C)O)NC(=O)[C@H](CCN)NC(=O)[C@H](CCN)NC(=O)[C@H](CC(C)C)NC(=O)[C@@H](CC(C)C)NC(=O)[C@H](CCN)NC1=O)[C@@H](C)O [colistin], the OD600 is inactive: 1.01.

With `CN(C)CCC(c1ccc(Br)cc1)c1ccccn1` (centres undefined) [Brompheniramine maleate] + CCC(C)CCCC(=O)N[C@@H](CCN)C(=O)N[C@H](C(=O)N[C@@H](CCN)C(=O)N[C@H]1CCNC(=O)[C@H]([C@@H](C)O)NC(=O)[C@H](CCN)NC(=O)[C@H](CCN)NC(=O)[C@H](CC(C)C)NC(=O)[C@@H](CC(C)C)NC(=O)[C@H](CCN)NC1=O)[C@@H](C)O [colistin], the OD600 was inactive: 0.99.

In the case of `C[C@H](CCC(=O)O)[C@H]1CC[C@H]2[C@@H]3[C@H](O)C[C@@H]4C[C@H](O)CC[C@]4(C)[C@H]3C[C@H](O)[C@]12C` [Cholic Acid] + CCC(C)CCCC(=O)N[C@@H](CCN)C(=O)N[C@H](C(=O)N[C@@H](CCN)C(=O)N[C@H]1CCNC(=O)[C@H]([C@@H](C)O)NC(=O)[C@H](CCN)NC(=O)[C@H](CCN)NC(=O)[C@H](CC(C)C)NC(=O)[C@@H](CC(C)C)NC(=O)[C@H](CCN)NC1=O)[C@@H](C)O [colistin], the OD600 is inactive: 1.16.

In the case of `CN(C)CC/C=C1/c2ccccc2Sc2ccc(Cl)cc21` [Chlorprothixene] + CCC(C)CCCC(=O)N[C@@H](CCN)C(=O)N[C@H](C(=O)N[C@@H](CCN)C(=O)N[C@H]1CCNC(=O)[C@H]([C@@H](C)O)NC(=O)[C@H](CCN)NC(=O)[C@H](CCN)NC(=O)[C@H](CC(C)C)NC(=O)[C@@H](CC(C)C)NC(=O)[C@H](CCN)NC1=O)[C@@H](C)O [colistin], the OD600 is inactive: 0.973.

On to `CCOC(=O)[C@H](CCc1ccccc1)N[C@@H](C)C(=O)N1Cc2ccccc2C[C@H]1C(=O)O` [Quinapril hydrochloride] + CCC(C)CCCC(=O)N[C@@H](CCN)C(=O)N[C@H](C(=O)N[C@@H](CCN)C(=O)N[C@H]1CCNC(=O)[C@H]([C@@H](C)O)NC(=O)[C@H](CCN)NC(=O)[C@H](CCN)NC(=O)[C@H](CC(C)C)NC(=O)[C@@H](CC(C)C)NC(=O)[C@H](CCN)NC1=O)[C@@H](C)O [colistin], for which the OD600 was inactive: 1.06.

Turning to `Cc1cc(C)nc(NS(=O)(=O)c2ccc(N)cc2)n1` [Sulfamethazine sodium] + CCC(C)CCCC(=O)N[C@@H](CCN)C(=O)N[C@H](C(=O)N[C@@H](CCN)C(=O)N[C@H]1CCNC(=O)[C@H]([C@@H](C)O)NC(=O)[C@H](CCN)NC(=O)[C@H](CCN)NC(=O)[C@H](CC(C)C)NC(=O)[C@@H](CC(C)C)NC(=O)[C@H](CCN)NC1=O)[C@@H](C)O [colistin], the OD600 was inactive: 0.95.

For the compound `CC1=C(C/C=C(\C)CCC[C@H](C)CCC[C@H](C)CCCC(C)C)C(=O)c2ccccc2C1=O` [Vitamin K1] + CCC(C)CCCC(=O)N[C@@H](CCN)C(=O)N[C@H](C(=O)N[C@@H](CCN)C(=O)N[C@H]1CCNC(=O)[C@H]([C@@H](C)O)NC(=O)[C@H](CCN)NC(=O)[C@H](CCN)NC(=O)[C@H](CC(C)C)NC(=O)[C@@H](CC(C)C)NC(=O)[C@H](CCN)NC1=O)[C@@H](C)O [colistin], the OD600 is inactive: 1.12.

With `CCCCCCCCCCC[C@@H](C[C@@H]1OC(=O)[C@H]1CCCCCC)OC(=O)[C@H](CC(C)C)NC=O` [Orlistat] + CCC(C)CCCC(=O)N[C@@H](CCN)C(=O)N[C@H](C(=O)N[C@@H](CCN)C(=O)N[C@H]1CCNC(=O)[C@H]([C@@H](C)O)NC(=O)[C@H](CCN)NC(=O)[C@H](CCN)NC(=O)[C@H](CC(C)C)NC(=O)[C@@H](CC(C)C)NC(=O)[C@H](CCN)NC1=O)[C@@H](C)O [colistin], the OD600 was inactive: 1.15.

As to `Cn1cnc2c1c(=O)[nH]c(=O)n2C` [Theobromine] + CCC(C)CCCC(=O)N[C@@H](CCN)C(=O)N[C@H](C(=O)N[C@@H](CCN)C(=O)N[C@H]1CCNC(=O)[C@H]([C@@H](C)O)NC(=O)[C@H](CCN)NC(=O)[C@H](CCN)NC(=O)[C@H](CC(C)C)NC(=O)[C@@H](CC(C)C)NC(=O)[C@H](CCN)NC1=O)[C@@H](C)O [colistin], the OD600 was inactive: 0.952.
